The record followed here is the supplement of paper PMC10849652.

Sequences of proteins named here, by UniProt entry; tags and fusion partners are left off. A change or cut given only in a name is not applied to a line headed by its entry.
UniProt Q7Z309: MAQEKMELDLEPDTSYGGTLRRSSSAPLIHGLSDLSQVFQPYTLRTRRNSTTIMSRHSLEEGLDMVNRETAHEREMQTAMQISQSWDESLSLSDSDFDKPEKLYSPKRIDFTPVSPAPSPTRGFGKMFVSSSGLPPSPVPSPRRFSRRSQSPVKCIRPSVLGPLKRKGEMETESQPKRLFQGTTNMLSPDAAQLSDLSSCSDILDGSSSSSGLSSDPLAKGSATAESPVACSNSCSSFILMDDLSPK
UniProt Q93063: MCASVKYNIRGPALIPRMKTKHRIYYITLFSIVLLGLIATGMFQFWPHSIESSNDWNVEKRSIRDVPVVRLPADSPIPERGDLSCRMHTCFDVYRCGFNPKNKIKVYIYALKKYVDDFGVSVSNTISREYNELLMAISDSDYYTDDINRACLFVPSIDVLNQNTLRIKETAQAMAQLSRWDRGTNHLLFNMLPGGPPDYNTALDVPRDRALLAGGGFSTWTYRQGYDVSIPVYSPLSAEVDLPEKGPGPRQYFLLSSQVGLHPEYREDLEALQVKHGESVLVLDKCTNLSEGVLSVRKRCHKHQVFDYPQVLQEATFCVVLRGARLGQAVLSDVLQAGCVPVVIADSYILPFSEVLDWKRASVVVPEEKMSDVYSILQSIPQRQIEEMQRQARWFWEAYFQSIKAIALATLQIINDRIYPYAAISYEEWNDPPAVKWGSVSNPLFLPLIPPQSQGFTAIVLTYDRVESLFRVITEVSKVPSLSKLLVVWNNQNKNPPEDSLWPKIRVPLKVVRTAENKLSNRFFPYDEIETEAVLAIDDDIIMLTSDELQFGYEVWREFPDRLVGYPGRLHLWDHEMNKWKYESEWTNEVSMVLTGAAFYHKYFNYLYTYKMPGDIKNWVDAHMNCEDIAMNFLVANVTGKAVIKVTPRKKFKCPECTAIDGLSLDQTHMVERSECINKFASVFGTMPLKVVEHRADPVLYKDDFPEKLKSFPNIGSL
UniProt Q96DZ1: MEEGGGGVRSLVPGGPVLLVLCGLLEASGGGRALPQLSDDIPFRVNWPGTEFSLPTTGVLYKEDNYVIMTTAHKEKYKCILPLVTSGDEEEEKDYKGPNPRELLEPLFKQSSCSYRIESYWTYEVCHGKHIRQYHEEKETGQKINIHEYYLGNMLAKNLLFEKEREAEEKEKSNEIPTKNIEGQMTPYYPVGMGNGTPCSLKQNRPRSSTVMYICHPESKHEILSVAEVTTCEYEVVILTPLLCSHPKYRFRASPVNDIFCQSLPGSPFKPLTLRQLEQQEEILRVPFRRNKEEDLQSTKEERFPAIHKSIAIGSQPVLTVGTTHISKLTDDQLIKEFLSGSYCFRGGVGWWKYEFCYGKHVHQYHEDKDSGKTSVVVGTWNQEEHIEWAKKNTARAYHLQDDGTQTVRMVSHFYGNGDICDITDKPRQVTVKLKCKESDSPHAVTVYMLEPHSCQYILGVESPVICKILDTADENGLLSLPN
UniProt Q16134: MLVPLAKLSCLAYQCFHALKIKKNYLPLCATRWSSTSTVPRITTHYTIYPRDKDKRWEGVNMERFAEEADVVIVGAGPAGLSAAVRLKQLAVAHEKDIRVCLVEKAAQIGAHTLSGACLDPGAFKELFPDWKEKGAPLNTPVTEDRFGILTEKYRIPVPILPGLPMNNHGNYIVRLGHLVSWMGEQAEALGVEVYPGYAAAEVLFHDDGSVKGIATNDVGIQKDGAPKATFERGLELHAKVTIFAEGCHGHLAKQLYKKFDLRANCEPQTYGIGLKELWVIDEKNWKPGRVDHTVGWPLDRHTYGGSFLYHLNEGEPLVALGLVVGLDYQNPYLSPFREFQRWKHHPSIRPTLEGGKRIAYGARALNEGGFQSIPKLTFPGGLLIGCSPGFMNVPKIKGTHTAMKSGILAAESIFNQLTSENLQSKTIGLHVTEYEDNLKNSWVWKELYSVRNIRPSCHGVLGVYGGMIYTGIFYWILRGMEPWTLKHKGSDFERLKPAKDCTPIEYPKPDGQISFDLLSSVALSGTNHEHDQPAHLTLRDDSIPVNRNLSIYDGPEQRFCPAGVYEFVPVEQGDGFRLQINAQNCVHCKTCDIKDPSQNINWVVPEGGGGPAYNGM
UniProt Q15024, whole entry, looked up: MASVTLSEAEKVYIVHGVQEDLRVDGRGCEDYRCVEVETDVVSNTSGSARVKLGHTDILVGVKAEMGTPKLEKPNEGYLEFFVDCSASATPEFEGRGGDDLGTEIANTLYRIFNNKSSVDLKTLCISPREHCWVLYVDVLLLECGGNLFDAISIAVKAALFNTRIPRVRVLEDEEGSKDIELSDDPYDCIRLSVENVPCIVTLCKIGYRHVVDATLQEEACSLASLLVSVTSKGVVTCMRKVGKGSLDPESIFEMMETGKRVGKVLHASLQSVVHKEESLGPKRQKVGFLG
UniProt Q86V87: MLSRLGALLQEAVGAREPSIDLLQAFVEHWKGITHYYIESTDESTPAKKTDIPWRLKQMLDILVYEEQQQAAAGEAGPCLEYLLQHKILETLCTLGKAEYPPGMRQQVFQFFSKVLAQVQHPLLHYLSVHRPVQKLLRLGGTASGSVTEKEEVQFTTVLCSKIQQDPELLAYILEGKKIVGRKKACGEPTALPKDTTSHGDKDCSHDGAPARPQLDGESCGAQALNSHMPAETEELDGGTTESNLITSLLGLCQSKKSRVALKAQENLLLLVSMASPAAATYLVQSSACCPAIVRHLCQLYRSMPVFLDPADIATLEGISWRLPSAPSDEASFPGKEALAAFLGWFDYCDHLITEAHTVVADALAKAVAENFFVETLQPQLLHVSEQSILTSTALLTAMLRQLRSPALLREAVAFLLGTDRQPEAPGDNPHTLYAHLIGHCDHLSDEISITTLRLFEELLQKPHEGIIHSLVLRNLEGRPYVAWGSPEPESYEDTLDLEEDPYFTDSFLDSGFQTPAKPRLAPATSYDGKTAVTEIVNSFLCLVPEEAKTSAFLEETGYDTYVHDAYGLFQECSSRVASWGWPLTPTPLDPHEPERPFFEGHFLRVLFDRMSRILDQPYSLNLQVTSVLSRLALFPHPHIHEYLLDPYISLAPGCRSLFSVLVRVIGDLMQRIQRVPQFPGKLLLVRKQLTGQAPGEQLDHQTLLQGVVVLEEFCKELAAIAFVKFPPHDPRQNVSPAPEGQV
UniProt Q6NZ36: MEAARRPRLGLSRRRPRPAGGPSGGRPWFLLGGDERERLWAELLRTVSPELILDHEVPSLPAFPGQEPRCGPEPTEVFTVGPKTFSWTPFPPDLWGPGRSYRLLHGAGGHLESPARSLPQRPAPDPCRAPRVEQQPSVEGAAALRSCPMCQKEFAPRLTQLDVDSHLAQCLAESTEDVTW
UniProt Q96GK7: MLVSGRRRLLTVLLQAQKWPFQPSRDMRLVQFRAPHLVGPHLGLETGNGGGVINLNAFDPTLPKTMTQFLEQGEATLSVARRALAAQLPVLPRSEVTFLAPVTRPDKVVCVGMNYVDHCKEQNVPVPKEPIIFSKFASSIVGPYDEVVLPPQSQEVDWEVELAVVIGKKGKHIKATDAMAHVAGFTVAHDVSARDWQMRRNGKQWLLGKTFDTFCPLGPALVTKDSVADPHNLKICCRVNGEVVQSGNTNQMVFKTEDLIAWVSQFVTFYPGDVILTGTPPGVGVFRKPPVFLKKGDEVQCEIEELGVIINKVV
UniProt O95208: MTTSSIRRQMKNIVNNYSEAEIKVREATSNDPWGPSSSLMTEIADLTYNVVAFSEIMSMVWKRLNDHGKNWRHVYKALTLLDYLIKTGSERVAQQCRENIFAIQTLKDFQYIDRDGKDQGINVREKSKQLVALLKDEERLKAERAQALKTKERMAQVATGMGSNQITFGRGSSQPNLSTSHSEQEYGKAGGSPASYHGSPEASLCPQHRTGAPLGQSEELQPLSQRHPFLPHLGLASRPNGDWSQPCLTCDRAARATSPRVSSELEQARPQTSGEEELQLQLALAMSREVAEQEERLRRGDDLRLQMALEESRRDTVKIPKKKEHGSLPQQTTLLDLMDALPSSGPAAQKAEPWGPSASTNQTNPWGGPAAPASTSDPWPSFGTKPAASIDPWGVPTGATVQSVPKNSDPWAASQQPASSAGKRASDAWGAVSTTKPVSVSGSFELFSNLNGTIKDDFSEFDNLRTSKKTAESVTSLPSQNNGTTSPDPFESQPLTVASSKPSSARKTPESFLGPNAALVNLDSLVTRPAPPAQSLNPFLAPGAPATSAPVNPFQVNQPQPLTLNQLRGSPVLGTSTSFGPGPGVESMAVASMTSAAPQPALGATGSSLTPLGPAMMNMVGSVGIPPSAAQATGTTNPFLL
UniProt P00742, whole entry, looked up: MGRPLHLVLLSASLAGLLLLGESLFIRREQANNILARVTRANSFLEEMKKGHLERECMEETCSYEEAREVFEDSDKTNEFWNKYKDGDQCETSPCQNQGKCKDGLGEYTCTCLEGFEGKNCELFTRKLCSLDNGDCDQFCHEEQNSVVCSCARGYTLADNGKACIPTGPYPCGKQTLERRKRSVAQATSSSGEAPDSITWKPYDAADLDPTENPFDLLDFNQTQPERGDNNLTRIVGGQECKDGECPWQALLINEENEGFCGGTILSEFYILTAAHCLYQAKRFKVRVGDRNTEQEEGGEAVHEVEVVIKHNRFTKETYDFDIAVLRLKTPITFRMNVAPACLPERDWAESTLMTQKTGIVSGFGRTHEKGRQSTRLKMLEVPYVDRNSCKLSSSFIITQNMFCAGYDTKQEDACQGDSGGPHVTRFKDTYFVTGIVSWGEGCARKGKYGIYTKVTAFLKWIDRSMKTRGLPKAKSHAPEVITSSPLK
UniProt Q8IUD2: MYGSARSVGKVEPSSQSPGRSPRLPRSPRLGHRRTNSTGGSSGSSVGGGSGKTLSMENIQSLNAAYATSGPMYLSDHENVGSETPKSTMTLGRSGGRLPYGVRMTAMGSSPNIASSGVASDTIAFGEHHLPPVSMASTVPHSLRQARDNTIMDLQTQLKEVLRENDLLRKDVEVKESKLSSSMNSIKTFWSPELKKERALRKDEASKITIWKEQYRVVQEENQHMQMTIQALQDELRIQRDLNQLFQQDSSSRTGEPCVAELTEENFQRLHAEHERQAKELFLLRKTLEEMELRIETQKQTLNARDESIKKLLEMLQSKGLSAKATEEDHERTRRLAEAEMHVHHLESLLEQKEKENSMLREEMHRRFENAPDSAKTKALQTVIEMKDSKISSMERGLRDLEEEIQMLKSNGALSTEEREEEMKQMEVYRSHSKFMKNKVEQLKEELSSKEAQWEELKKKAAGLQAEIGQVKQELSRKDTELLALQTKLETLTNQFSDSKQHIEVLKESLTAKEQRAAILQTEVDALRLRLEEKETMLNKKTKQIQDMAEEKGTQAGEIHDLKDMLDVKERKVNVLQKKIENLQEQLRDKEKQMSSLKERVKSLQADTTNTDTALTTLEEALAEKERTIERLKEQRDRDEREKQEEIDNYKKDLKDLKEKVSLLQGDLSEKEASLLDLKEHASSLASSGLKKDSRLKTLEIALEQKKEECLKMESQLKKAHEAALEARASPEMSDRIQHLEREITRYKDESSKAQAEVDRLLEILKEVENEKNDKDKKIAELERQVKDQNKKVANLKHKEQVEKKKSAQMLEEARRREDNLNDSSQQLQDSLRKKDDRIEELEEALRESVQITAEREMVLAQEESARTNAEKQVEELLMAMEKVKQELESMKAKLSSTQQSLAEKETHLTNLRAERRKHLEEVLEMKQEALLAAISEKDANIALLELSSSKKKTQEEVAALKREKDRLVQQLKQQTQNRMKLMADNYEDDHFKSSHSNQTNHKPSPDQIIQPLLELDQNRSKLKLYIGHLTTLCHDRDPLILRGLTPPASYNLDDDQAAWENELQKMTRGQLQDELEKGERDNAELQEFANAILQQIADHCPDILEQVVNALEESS
UniProt Q9BYI3: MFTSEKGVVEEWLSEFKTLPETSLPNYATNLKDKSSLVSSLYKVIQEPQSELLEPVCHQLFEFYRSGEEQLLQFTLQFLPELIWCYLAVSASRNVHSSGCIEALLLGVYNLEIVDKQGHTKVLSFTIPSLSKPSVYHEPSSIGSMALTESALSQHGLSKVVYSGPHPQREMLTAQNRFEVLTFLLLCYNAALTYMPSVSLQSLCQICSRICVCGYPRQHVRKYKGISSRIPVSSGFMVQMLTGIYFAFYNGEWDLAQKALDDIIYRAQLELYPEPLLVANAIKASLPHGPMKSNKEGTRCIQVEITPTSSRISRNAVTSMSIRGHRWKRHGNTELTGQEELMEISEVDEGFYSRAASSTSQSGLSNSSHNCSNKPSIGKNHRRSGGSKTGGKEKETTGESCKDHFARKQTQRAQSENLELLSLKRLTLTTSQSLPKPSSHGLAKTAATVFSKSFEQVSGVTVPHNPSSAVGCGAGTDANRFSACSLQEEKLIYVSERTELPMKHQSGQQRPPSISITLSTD
UniProt Q01469, whole entry, looked up: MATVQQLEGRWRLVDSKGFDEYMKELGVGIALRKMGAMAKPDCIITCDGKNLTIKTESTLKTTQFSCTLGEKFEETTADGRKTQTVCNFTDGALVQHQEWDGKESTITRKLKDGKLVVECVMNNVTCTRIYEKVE

The other results are listed elsewhere or left out.

Compound in this test: c1cn2cc(-c3ccc4cn[nH]c4c3)nc(Nc3ccc(N4CCOCC4)cc3)c2n1 [entospletinib]
As to the kind of experiment: log2 fold change, soluble protein after heating vs DMSO (PISA); higher = thermal stabilisation; K562 cells, 10 uM, 30 min; active = over 0.2 and 3.5 SD of the protein, either way, in both replicates (recomputed). The gist of the method: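 Thermal stability values are relative to control samples and come from duplicates. They are expressed as log2 fold changes. For measurement, K562 cells (2×10^6 cells/mL) received 10 μM compound for 30 min, and aliquots were heated for 3 min over 48°C-58°C, pooled, and extracted at 4°C in PBS with 0.5% NP-40. Soluble protein, the supernatant after 21,000xg for 90 min, was quantified by TMTpro 16plex LC-MS/MS with equalised channel sums.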
With FAM122B isoform 3 (UniProt Q7Z309), the log2 fold change was inactive: -0.017. To ESRRB isoform 1 (UniProt O95718) belongs inactive: 0.018. To ETNPPL (UniProt Q8TBG4) belongs inactive: 0.292; to EXOC3 (UniProt O60645), inactive: 0.027.

For EXT2 isoform 3 (UniProt Q93063), the log2 fold change is inactive: -0.037. To ERLEC1 (UniProt Q96DZ1) belongs inactive: -0.009. In the case of ERMP1 (UniProt Q7Z2K6) it was inactive: 0.002; in that of ETFDH (UniProt Q16134), inactive: 0.002. In the case of EXOSC7 (UniProt Q15024) it was inactive: -0.008; in that of FAM160B2 (UniProt Q86V87), inactive: 0.284; in that of FAAP20 isoform 2 (UniProt Q6NZ36), inactive: -0.072. Consider FAHD2A (UniProt Q96GK7), for which the log2 fold change is inactive: 0.026. To EPN2 (UniProt O95208) belongs inactive: -0.008; to EXTL3 (UniProt O43909), inactive: 0.161; to F10 (UniProt P00742), inactive: 0.016. Regarding EPCAM (UniProt P16422), the log2 fold change was inactive: 0.025. In the case of ERG28 (UniProt Q9UKR5) it was inactive: -0.019; in that of ERC1 (UniProt Q8IUD2), inactive: -0.083.

In the case of ERP29 (UniProt P30040), the log2 fold change is inactive: 0.022.

Turning to ETHE1 (UniProt O95571), the log2 fold change is inactive: 0.049.

Turning to EPPK1 (UniProt P58107), the log2 fold change is inactive: 0.16. Regarding FAM126A (UniProt Q9BYI3), the log2 fold change was inactive: 0.144. As to EXOSC4 (UniProt Q9NPD3), the log2 fold change is inactive: -0.038. In the case of ESD (UniProt P10768) it was inactive: -0.007. In the case of EWSR1 isoform 5 (UniProt Q01844) it was inactive: 0.044; in that of EWSR1 (UniProt H7BY36), inactive: 0.038; in that of FADD (UniProt Q13158), inactive: 0.048. Turning to FABP5 (UniProt Q01469), the log2 fold change is inactive: 0.026. To ESYT2 isoform 2 (UniProt A0FGR8) belongs inactive: -0.009. In the case of EPB41L2 (UniProt O43491) it was inactive: 0.024.
